Measurements taken from the supplement of paper PMC6078165.
± gives the standard deviation of the averaged measurements. The reference is the same well before dosing, and untreated signal decays as well.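 The cancer cells are triple-negative breast cancer lines of basal-like or mesenchymal-like type, grown without fibroblasts. A drop in red signal reflects loss of mitochondrial integrity, a stand-in for apoptotic death.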 Numbered stars: 1 amine (or outer) side, 2 acyl side, 3 side chain; on linkers, the order of the positions; unused ones are H or OH. Bridge positions count the residues as written; N and C are the ends. Square brackets hold non-standard residues; d marks the D form. Peptide text beside a SMILES is read from it. I, II: the chains in the order shown. Actinocin(9to1) = Cc1c2oc3c(C)ccc(C(=O)[*:1])c3nc-2c(C(=O)[*:2])c(N)c1=O; NMeV = CN[C@H](C(=O)O)C(C)C; Sar = CNCC(=O)O

Assays:
[1] = system: MDAMB436; assay: relative JC-1 red fluorescence (viability) vs pre-drug, monoculture (fraction); higher = more viable cancer cells; settings: coculture fibroblast: none (monoculture)
Procedure: (§1)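 JC-1 labelled TNBC cells grown in monoculture (density kept equal with unlabelled cancer cells) in 384-well plates in FluoroBrite medium, treated with one of 42 anticancer drugs at 0.1, 1, 10 or 100 uM. JC-1 red fluorescence (mitochondrial integrity, surrogate of apoptotic death) was read by plate reader every 8 h for 72 h. Values are normalised to each well's pre-drug value, with background from alamethicin. The stock of one drug was tenfold lower, so its dose labels may be too high. Monoculture values are repeated alongside each fibroblast plate and are averaged here.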

[2] = system: HCC1143; assay: as above; settings: coculture fibroblast: none (monoculture)
Procedure: as §1

O=C(O)C(=O)O.[NH-][C@@H]1CCCC[C@H]1[NH-].[Pt+2] [Oxaliplatin]
relative JC-1 red fluorescence
Settings	8 h	16 h	24 h	32 h	40 h	48 h	56 h	64 h	72 h
[1], 0.1 µM	0.8892 ± 0.00094	0.9284 ± 0.0088	0.9119 ± 0.0033	0.739 ± 0.032	0.811 ± 0.049	0.838 ± 0.081	0.829 ± 0.02	0.831 ± 0.043	0.776 ± 0.038
[1], 1 µM	0.843 ± 0.0019	0.7776 ± 0.002	0.706 ± 0.012	0.643 ± 0.0045	0.611 ± 0.014	0.597 ± 0.013	0.588 ± 0.016	0.577 ± 0.017	0.574 ± 0.018
[1], 10 µM	0.89 ± 0.016	0.777 ± 0.023	0.767 ± 0.011	0.71 ± 0.008	0.69561 ± 0.0006	0.6987 ± 0.003	0.7053 ± 0.0035	0.707 ± 0.008	0.72 ± 0.0096
[1], 100 µM	0.876 ± 0.0034	0.832 ± 0.018	0.773 ± 0.019	0.723 ± 0.024	0.699 ± 0.028	0.677 ± 0.036	0.657 ± 0.031	0.656 ± 0.039	0.645 ± 0.045
[2], 0.1 µM	0.8316 ± 0.0078	0.7547 ± 0.0073	0.6931 ± 0.0061	0.6403 ± 0.0018	0.5902 ± 0.0032	0.5679 ± 0.0041	0.5386 ± 0.0021	0.5292 ± 0.0034	0.521 ± 0.0076
[2], 1 µM	0.8831 ± 0.0039	0.8034 ± 0.00063	0.7551 ± 0.001	0.7092 ± 0.0012	0.676 ± 0.0078	0.6484 ± 0.0034	0.6363 ± 0.0027	0.6211 ± 0.005	0.6106 ± 0.0056
[2], 10 µM	0.9 ± 0.023	0.802 ± 0.019	0.7362 ± 0.0013	0.685 ± 0.01	0.646 ± 0.018	0.611 ± 0.021	0.579 ± 0.03	0.554 ± 0.034	0.537 ± 0.037
[2], 100 µM	0.91 ± 0.052	0.791 ± 0.067	0.693 ± 0.067	0.629 ± 0.071	0.593 ± 0.073	0.57 ± 0.083	0.545 ± 0.086	0.529 ± 0.072	0.52 ± 0.066

Cc1c2oc3c(C)ccc(C(=O)N[C@@H]4C(=O)N[C@H](C(C)C)C(=O)N5CCC[C@H]5C(=O)N(C)CC(=O)N(C)[C@@H](C(C)C)C(=O)O[C@@H]4C)c3nc-2c(C(=O)N[C@@H]2C(=O)N[C@H](C(C)C)C(=O)N3CCC[C@H]3C(=O)N(C)CC(=O)N(C)[C@@H](C(C)C)C(=O)O[C@@H]2C)c(N)c1=O [Dactinomycin] (I: T[dV]P[Sar][NMeV] / II: T[dV]P[Sar][NMeV]; ester I:1-I:C, II:1-II:C; linker I:N-II:N via Actinocin(9to1))
relative JC-1 red fluorescence
Settings	8 h	16 h	24 h	32 h	40 h	48 h	56 h	64 h	72 h
[1], 0.1 µM	0.847 ± 0.039	0.874 ± 0.018	0.947 ± 0.031	0.966 ± 0.034	0.871 ± 0.096	0.8551 ± 0.0039	0.749 ± 0.043	0.854 ± 0.057	0.922 ± 0.014
[1], 1 µM	0.8182 ± 0.0053	0.783 ± 0.018	0.804 ± 0.029	0.769 ± 0.033	0.778 ± 0.045	0.79 ± 0.043	0.789 ± 0.05	0.8 ± 0.055	0.817 ± 0.065
[1], 10 µM	0.7981 ± 0.0009	0.841 ± 0.033	0.879 ± 0.045	0.862 ± 0.053	0.89 ± 0.053	0.905 ± 0.056	0.925 ± 0.066	0.841 ± 0.041	0.806 ± 0.088
[1], 100 µM	0.778 ± 0.027	0.7323 ± 0.0015	0.7241 ± 0.0053	0.67702 ± 0.00037	0.657 ± 0.016	0.66 ± 0.026	0.634 ± 0.031	0.635 ± 0.034	0.638 ± 0.038
[2], 0.1 µM	0.838 ± 0.018	0.782 ± 0.018	0.732 ± 0.028	0.687 ± 0.037	0.651 ± 0.04	0.626 ± 0.04	0.606 ± 0.054	0.597 ± 0.068	0.594 ± 0.069
[2], 1 µM	0.813 ± 0.036	0.724 ± 0.027	0.663 ± 0.037	0.61 ± 0.047	0.571 ± 0.044	0.558 ± 0.047	0.542 ± 0.051	0.545 ± 0.049	0.55 ± 0.05
[2], 10 µM	0.788 ± 0.033	0.689 ± 0.03	0.639 ± 0.038	0.585 ± 0.052	0.555 ± 0.05	0.541 ± 0.053	0.526 ± 0.053	0.526 ± 0.056	0.532 ± 0.055
[2], 100 µM	0.823 ± 0.021	0.7275 ± 0.004	0.6352 ± 0.0039	0.5593 ± 0.0034	0.494 ± 0.0095	0.452 ± 0.013	0.417 ± 0.02	0.4 ± 0.026	0.391 ± 0.027

C=C1C[C@@H]2[C@H](CC[C@]3(C)C(=O)CC[C@@H]23)[C@@]2(C)C=CC(=O)C=C12 [Exemestane]
relative JC-1 red fluorescence
Settings	8 h	16 h	24 h	32 h	40 h	48 h	56 h	64 h	72 h
[1], 0.1 µM	0.871 ± 0.016	0.818 ± 0.015	0.8025 ± 0.0072	0.7566 ± 0.0063	0.774 ± 0.0097	0.7849 ± 0.0049	0.8029 ± 0.0031	0.8085 ± 0.0046	0.8193 ± 0.0052
[1], 1 µM	0.8513 ± 0.0024	0.784 ± 0.03	0.773 ± 0.034	0.719 ± 0.025	0.69 ± 0.019	0.679 ± 0.011	0.672 ± 0.011	0.673 ± 0.013	0.67 ± 0.015
[1], 10 µM	0.871 ± 0.018	0.817 ± 0.015	0.8331 ± 0.0052	0.791 ± 0.015	0.797 ± 0.012	0.801 ± 0.016	0.81 ± 0.018	0.818 ± 0.026	0.824 ± 0.025
[1], 100 µM	0.8607 ± 0.00088	0.7877 ± 0.0034	0.825 ± 0.018	0.779 ± 0.027	0.777 ± 0.039	0.77 ± 0.029	0.753 ± 0.025	0.732 ± 0.028	0.719 ± 0.016
[2], 0.1 µM	0.8779 ± 0.0028	0.812 ± 0.0099	0.73659 ± 0.00056	0.6815 ± 0.0037	0.626 ± 0.011	0.585 ± 0.018	0.56 ± 0.021	0.538 ± 0.027	0.521 ± 0.031
[2], 1 µM	0.875 ± 0.012	0.7959 ± 0.0025	0.71949 ± 3.9e-05	0.635 ± 0.0086	0.588 ± 0.016	0.55 ± 0.022	0.518 ± 0.015	0.492 ± 0.022	0.473 ± 0.015
[2], 10 µM	0.949 ± 0.01	0.857 ± 0.018	0.793 ± 0.023	0.74 ± 0.02	0.681 ± 0.03	0.633 ± 0.029	0.578 ± 0.049	0.537 ± 0.062	0.512 ± 0.066
[2], 100 µM	0.878 ± 0.031	0.762 ± 0.073	0.696 ± 0.12	0.625 ± 0.14	0.565 ± 0.15	0.526 ± 0.14	0.504 ± 0.13	0.497 ± 0.1	0.501 ± 0.097
